From patent publication US8148371B2, “Adenine compound and use thereof” (Dainippon Sumitomo Pharma Co., Ltd., priority 2002, dated 2012)

Columns and labels:
[1] = Metabolic stability on liver S9 of rat; details: rat liver S9, test compound 1 μM, 37° C.
plasma esterase = details: rat plasma, test compound 10 μM, 37° C., 15 minutes

In the case of `CCCCOc1nc(N)c2[nH]c(=O)n(Cc3cccc(CC(=O)OC)c3)c2n1` [Example 19, 2-Butoxy-8-hydroxy-9-(3-methoxycarbonylmethylbenzyl)adenine], the Residual rate [1] is reported as 0% and the Residual rate (plasma esterase) is reported as 1%.
